{
  "source": "patent US20220074941A1",
  "about": "“HSP90 COMBINATION THERAPY” (Sloan-Kettering Institute for Cancer Research, priority 2011, published 2022)",
  "molecules": {"B1": {"name": "GIT1 (protein, UniProt Q9Y2X7 1-761, looked up)", "ARF GTPase-activating protein …": "MSRKGPRAEVCADCSAPDPGWASISRGVLVCDECCSVHRSLGRHISIVKHLRHSAWPPTLLQMVHTLASNGANSIWEHSLLDPAQVQSGRRKANPQDKVHPIKSEFIRAKYQMLAFVHKLPCRDDDGVTAKDLSKQLHSSVRTGNLETCLRLLSLGAQANFFHPEKGTTPLHVAAKAGQTLQAELLVVYGADPGSPDVNGRTPIDYARQAGHHELAERLVECQYELTDRLAFYLCGRKPDHKNGHYIIPQMADSLDLSELAKAAKKKLQALSNRLFEELAMDVYDEVDRRENDAVWLATQNHSTLVTERSAVPFLPVNPEYSATRNQGRQKLARFNAREFATLIIDILSEAKRRQQGKSLSSPTDNLELSLRSQSDLDDQHDYDSVASDEDTDQEPLRSTGATRSNRARSMDSSDLSDGAVTLQEYLELKKALATSEAKVQQLMKVNSSLSDELRRLQREIHKLQAENLQLRQPPGPVPTPPLPSERAEHTPMAPGGSTHRRDRQAFSMYEPGSALKPFGGPPGDELTTRLQPFHSTELEDDAIYSVHVPAGLYRIRKGVSASAVPFTPSSPLLSCSQEGSRHTSKLSRHGSGADSDYENTQSGDPLLGLEGKRFLELGKEEDFHPELESLDGDLDPGLPSTEDVILKTEQVTKNIQELLRAAQEFKHDSFVPCSEKIHLAVTEMASLFPKRPALEPVRSSLRLLNASAYRLQSECRKTVPPEPGAPVDFQLLTQQVIQCAYDIAKAAKQLVTITTREKKQ"}, "B2": {"name": "ARHGEF1 (protein, UniProt Q92888 1-912, looked up)", "Rho guanine nucleotide …": "MEDFARGAASPGPSRPGLVPVSIIGAEDEDFENELETNSEEQNSQFQSLEQVKRRPAHLMALLQHVALQFEPGPLLCCLHADMLGSLGPKEAKKAFLDFYHSFLEKTAVLRVPVPPNVAFELDRTRADLISEDVQRRFVQEVVQSQQVAVGRQLEDFRSKRLMGMTPWEQELAQLEAWVGRDRASYEARERHVAERLLMHLEEMQHTISTDEEKSAAVVNAIGLYMRHLGVRTKSGDKKSGRNFFRKKVMGNRRSDEPAKTKKGLSSILDAARWNRGEPQVPDFRHLKAEVDAEKPGATDRKGGVGMPSRDRNIGAPGQDTPGVSLHPLSLDSPDREPGADAPLELGDSSPQGPMSLESLAPPESTDEGAETESPEPGDEGEPGRSGLELEPEEPPGWRELVPPDTLHSLPKSQVKRQEVISELLVTEAAHVRMLRVLHDLFFQPMAECLFFPLEELQNIFPSLDELIEVHSLFLDRLMKRRQESGYLIEEIGDVLLARFDGAEGSWFQKISSRFCSRQSFALEQLKAKQRKDPRFCAFVQEAESRPRCRRLQLKDMIPTEMQRLTKYPLLLQSIGQNTEEPTEREKVELAAECCREILHHVNQAVRDMEDLLRLKDYQRRLDLSHLRQSSDPMLSEFKNLDITKKKLVHEGPLTWRVTKDKAVEVHVLLLDDLLLLLQRQDERLLLKSHSRTLTPTPDGKTMLRPVLRLTSAMTREVATDHKAFYVLFTWDQEAQIYELVAQTVSERKNWCALITETAGSLKVPAPASRPKPRPSPSSTREPLLSSSENGNGGRETSPADARTERILSDLLPFCRPGPEGQLAATALRKVLSLKQLLFPAEEDNGAGPPRDGDGVPGGGPLSPARTQEIQENLLSLEETMKQLEELEEEFCRLRPLLSQLGGNSVPQPGCT"}, "B3": {"name": "ARHGEF2 (protein, UniProt Q92974 1-986, looked up)", "Rho guanine nucleotide …": "MSRIESLTRARIDRSRELASKTREKEKMKEAKDARYTNGHLFTTISVSGMTMCYACNKSITAKEALICPTCNVTIHNRCKDTLANCTKVKQKQQKAALLKNNTALQSVSLRSKTTIRERPSSAIYPSDSFRQSLLGSRRGRSSLSLAKSVSTTNIAGHFNDESPLGLRRILSQSTDSLNMRNRTLSVESLIDEAEVIYSELMSDFEMDEKDFAADSWSLAVDSSFLQQHKKEVMKQQDVIYELIQTELHHVRTLKIMTRLFRTGMLEELHLEPGVVQGLFPCVDELSDIHTRFLSQLLERRRQALCPGSTRNFVIHRLGDLLISQFSGPSAEQMCKTYSEFCSRHSKALKLYKELYARDKRFQQFIRKVTRPAVLKRHGVQECILLVTQRITKYPLLISRILQHSHGIEEERQDLTTALGLVKELLSNVDEGIYQLEKGARLQEIYNRMDPRAQTPVPGKGPFGREELLRRKLIHDGCLLWKTATGRFKDVLVLLMTDVLVFLQEKDQKYIFPTLDKPSVVSLQNLIVRDIANQEKGMFLISAAPPEMYEVHTASRDDRSTWIRVIQQSVRTCPSREDFPLIETEDEAYLRRIKMELQQKDRALVELLREKVGLFAEMTHFQAEEDGGSGMALPTLPRGLFRSESLESPRGERLLQDAIREVEGLKDLLVGPGVELLLTPREPALPLEPDSGGNTSPGVTANGEARTFNGSIELCRADSDSSQRDRNGNQLRSPQEEALQRLVNLYGLLHGLQAAVAQQDTLMEARFPEGPERREKLCRANSRDGEAGRAGAAPVAPEKQATELALLQRQHALLQEELRRCRRLGEERATEAGSLEARLRESEQARALLEREAEEARRQLAALGQTEPLPAEAPWARRPVDPRRRSLPAGDALYLSFNPPQPSRGTDRLDLPVTTRSVHRNFEDRERQELGSPEERLQDSSDPDTGSEEEGSSRLSPPHSPRDFTRMQDIPEETESRDGEAVASES"}, "B4": {"name": "RANGAP1 (protein, UniProt P46060 2-587, looked up)", "Ran GTPase-activating protein …": "ASEDIAKLAETLAKTQVAGGQLSFKGKSLKLNTAEDAKDVIKEIEDFDSLEALRLEGNTVGVEAARVIAKALEKKSELKRCHWSDMFTGRLRTEIPPALISLGEGLITAGAQLVELDLSDNAFGPDGVQGFEALLKSSACFTLQELKLNNCGMGIGGGKILAAALTECHRKSSAQGKPLALKVFVAGRNRLENDGATALAEAFRVIGTLEEVHMPQNGINHPGITALAQAFAVNPLLRVINLNDNTFTEKGAVAMAETLKTLRQVEVINFGDCLVRSKGAVAIADAIRGGLPKLKELNLSFCEIKRDAALAVAEAMADKAELEKLDLNGNTLGEEGCEQLQEVLEGFNMAKVLASLSDDEDEEEEEEGEEEEEEAEEEEEEDEEEEEEEEEEEEEEPQQRGQGEKSATPSRKILDPNTGEPAPVLSSPPPADVSTFLAFPSPEKLLRLGPKSSVLIAQQTDTSDPEKVVSAFLKVSSVFKDEATVRMAVQDAVDALMQKAFNSSSFNSNTFLTRLLVHMGLLKSEDKVKAIANLYGPLMALNHMVQQDYFPKALAPLLLAFVTKPNSALESCSFARHSLLQTLYKV"}, "B5": {"name": "ACAP2 (protein, UniProt Q15057 1-778, looked up)", "Arf-GAP with coiled-coil, ANK …": "MKMTVDFEECLKDSPRFRAALEEVEGDVAELELKLDKLVKLCIAMIDTGKAFCVANKQFMNGIRDLAQYSSNDAVVETSLTKFSDSLQEMINFHTILFDQTQRSIKAQLQNFVKEDLRKFKDAKKQFEKVSEEKENALVKNAQVQRNKQHEVEEATNILTATRKCFRHIALDYVLQINVLQSKRRSEILKSMLSFMYAHLAFFHQGYDLFSELGPYMKDLGAQLDRLVVDAAKEKREMEQKHSTIQQKDFSSDDSKLEYNVDAANGIVMEGYLFKRASNAFKTWNRRWFSIQNNQLVYQKKFKDNPTVVVEDLRLCTVKHCEDIERRFCFEVVSPTKSCMLQADSEKLRQAWIKAVQTSIATAYREKGDESEKLDKKSSPSTGSLDSGNESKEKLLKGESALQRVQCIPGNASCCDCGLADPRWASINLGITLCIECSGIHRSLGVHFSKVRSLTLDTWEPELLKLMCELGNDVINRVYEANVEKMGIKKPQPGQRQEKEAYIRAKYVERKFVDKYSISLSPPEQQKKFVSKSSEEKRLSISKFGPGDQVRASAQSSVRSNDSGIQQSSDDGRESLPSTVSANSLYEPEGERQDSSMFLDSKHLNPGLQLYRASYEKNLPKMAEALAHGADVNWANSEENKATPLIQAVLGGSLVTCEFLLQNGANVNQRDVQGRGPLHHATVLGHTGQVCLFLKRGANQHATDEEGKDPLSIAVEAANADIVTLLRLARMNEEMRESEGLYGQPGDETYQDIFRDFSQMASNNPEKLNRFQQDSQKF"}, "B6": {"name": "TGFBRAP1 (protein, UniProt Q8WUH2 1-860, looked up)", "Transforming growth …": "MMSIKAFTLVSAVERELLMGDKERVNIECVECCGRDLYVGTNDCFVYHFLLEERPVPAGPATFTATKQLQRHLGFKKPVNELRAASALNRLLVLCDNSISLVNMLNLEPVPSGARIKGAATFALNENPVSGDPFCVEVCIISVKRRTIQMFLVYEDRVQIVKEVSTAEQPLAVAVDGHFLCLALTTQYIIHNYSTGVSQDLFPYCSEERPPIVKRIGRQEFLLAGPGGLGMFATVAGISQRAPVHWSENVIGAAVSFPYVIALDDEFITVHSMLDQQQKQTLPFKEGHILQDFEGRVIVATSKGVYILVPLPLEKQIQDLLASRRVEEALVLAKGARRNIPKEKFQVMYRRILQQAGFIQFAQLQFLEAKELFRSGQLDVRELISLYPFLLPTSSSFTRSHPPLHEYADLNQLTQGDQEKMAKCKRFLMSYLNEVRSTEVANGYKEDIDTALLKLYAEADHDSLLDLLVTENFCLLTDSAAWLEKHKKYFALGLLYHYNNQDAAAVQLWVNIVNGDVQDSTRSDLYEYIVDFLTYCLDEELVWAYADWVLQKSEEVGVQVFTKRPLDEQQKNSFNPDDIINCLKKYPKALVKYLEHLVIDKRLQKEEYHTHLAVLYLEEVLLQRASASGKGAEATETQAKLRRLLQKSDLYRVHFLLERLQGAGLPMESAILHGKLGEHEKALHILVHELQDFAAAEDYCLWCSEGRDPPHRQQLFHTLLAIYLHAGPTAHELAVAAVDLLNRHATEFDAAQVLQMLPDTWSVQLLCPFLMGAMRDSIHARRTMQVALGLARSENLIYTYDKMKLKGSSIQLSDKKLCQICQNPFCEPVFVRYPNGGLVHTHCAASRHTNPSSSSPGTRT"}},
  "data": [
    {"system": "Hsp90 complexes in Mia-PaCa-2 cell extract", "experiment": "Nano-LC-MS/MS of PU-beads pull-downs", "assay_type": "binding, human", "details": "protein identified in PU-beads pull-down of Mia-Paca 2 extract; QSTAR-Elite QTof MS", "procedure,_shortened": "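Lysates pre-cleared overnight at 4 °C with control beads underwent PU-bead pull-down; bound proteins were SDS-eluted, gel-separated, digested and analyzed by nano-LC-MS/MS on a QTof. Identifications used significance p<0.05, 0.4 Da tolerances and one missed cleavage; unique peptide (spectral) counts and sequence coverage were reported.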", "values": [
      {"molecule": "B1", "Number of Assigned Spectra, Mia-Paca 2": 0},
      {"molecule": "B2", "Number of Assigned Spectra, Mia-Paca 2": 0},
      {"molecule": "B3", "Number of Assigned Spectra, Mia-Paca 2": 2},
      {"molecule": "B4", "Number of Assigned Spectra, Mia-Paca 2": 1},
      {"molecule": "B5", "Number of Assigned Spectra, Mia-Paca 2": 1},
      {"molecule": "B6", "Number of Assigned Spectra, Mia-Paca 2": 0}
    ]},
    {"system": "Hsp90 complexes in K562 cell extract", "experiment": "Nano-LC-MS/MS of PU-beads pull-downs", "assay_type": "binding", "details": "protein identified in PU-beads pull-down of K562 extract, Prep 1; QSTAR-Elite QTof MS", "procedure,_shortened": "(§1)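 Lysates pre-cleared overnight at 4 °C with control beads, then pulled down with PU-beads or control beads; eluted proteins (2% SDS boil) gel-separated and analysed by nano LC-MS/MS on a QTof. Mascot identification (p<0.05), spectral counts and sequence coverage evaluated in Scaffold.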", "values": [
      {"molecule": "B1", "Number of Assigned Spectra, K562 Prep 1": 2},
      {"molecule": "B2", "Number of Assigned Spectra, K562 Prep 1": 4},
      {"molecule": "B3", "Number of Assigned Spectra, K562 Prep 1": 14},
      {"molecule": "B4", "Number of Assigned Spectra, K562 Prep 1": 13},
      {"molecule": "B5", "Number of Assigned Spectra, K562 Prep 1": 3},
      {"molecule": "B6", "Number of Assigned Spectra, K562 Prep 1": 1}
    ]},
    {"system": "Hsp90 complexes in K562 cell extract", "experiment": "Nano-LC-MS/MS of PU-beads pull-downs", "assay_type": "binding", "details": "protein identified in PU-beads pull-down of K562 extract, Prep 2; QSTAR-Elite QTof MS", "procedure,_shortened": "as §1", "values": [
      {"molecule": "B1", "Number of Assigned Spectra, K562 Prep 2": 0},
      {"molecule": "B2", "Number of Assigned Spectra, K562 Prep 2": 3},
      {"molecule": "B3", "Number of Assigned Spectra, K562 Prep 2": 7},
      {"molecule": "B4", "Number of Assigned Spectra, K562 Prep 2": 4},
      {"molecule": "B5", "Number of Assigned Spectra, K562 Prep 2": 2},
      {"molecule": "B6", "Number of Assigned Spectra, K562 Prep 2": 0}
    ]}
  ]
}
